{"source": "paper PMC3494447", "about": "(British Journal of Cancer, 2012)", "key": {"[1]": {"format": "in vivo, human"}, "[2]": {"tested_on": "CYP1A2", "conditions": "competitive inhibition, in vitro; ref unpublished data; cited from earlier work"}, "[3]": {"tested_on": "cytochrome P450 (CYP) 2C8 enzyme", "conditions": "in vitro, ref unpublished data, cited from earlier work"}}, "note": "Like-named read-outs stand apart in the source and are kept apart here.", "data": [{"smiles": "CNC(=O)c1ccccc1Sc1ccc2c(/C=C/c3ccccn3)n[nH]c2c1", "note": "[Axitinib, axitinib]", "values": [{"measurement": "CL/F, Mean (%CV)", "setting": "[1]; axitinib 5 mg b.i.d. + gemcitabine/cisplatin, cycle 1 day 1", "result": "46.7 (104) l h^−1"}, {"measurement": "CL/F, Mean (%CV)", "setting": "[1]; axitinib + paclitaxel/carboplatin, cycle 1 day 1, dose-normalised to 5 mg b.i.d.", "result": "37 (114) l h^−1"}, {"measurement": "CL/F, Mean (%CV)", "setting": "[1]; axitinib alone 5 mg b.i.d., steady state, gemcitabine/cisplatin cohort", "result": "50.1 (113) l h^−1"}, {"measurement": "CL/F, Mean (%CV)", "setting": "[1]; axitinib alone, steady state, cohorts 1–3 pooled, dose-normalised to 5 mg b.i.d.", "result": "39 (87) l h^−1"}, {"measurement": "inhibitor constant, CYP1A2", "setting": "[2]", "result": 0.27, "unit": "μg ml^–1"}, {"measurement": "Mode of CYP2C8 inhibition", "setting": "[3]", "result": "noncompetitively inhibits"}, {"measurement": "inhibitor constant, CYP2C8", "setting": "[3]; non-competitive inhibition", "result": 0.19, "unit": "μg ml^–1"}]}]}
